Measurements reported in patent publication US20200222474A1, “COMPOSITIONS AND METHODS FOR INCREASING PHYTOCHEMICAL BIOAVAILABLITY AND BIOACTIVITY” (North Carolina State University, priority 2017, published 2020).
For at least one compound, name, drawing or mass did not settle the structure. Some results were stated once for a whole list of compounds, not compound by compound. Some ranges recur; such a range may be that of the whole group of compounds.

Columns and labels:
L. acidophilus NCFM [1] = assay: Plant glycoside uptake and metabolite analysis of L. acidophilus NCFM culture supernatants by UHPLC-DAD-Q-TOF-MS; format: cell-based, Lactobacillus acidophilus; settings: growth concentration 0.5% (w/v); qualitative: depletion of the plant glycoside and/or appearance of its metabolites
Experimental: (§1) For initial growth and gene expression studies, L. acidophilus NCFM was propagated three times in semi-defined medium (SDM) supplemented with either 1% or 0,5% (w/v) of the plant glycoside or carbohydrate (Table 1). For the RNA-seq analysis, cells were harvested by centrifugation (3,220×10 min, 25° C.) in the mid-exponential phase (OD600=0.6-0.8) and stored at −80° C. for subsequent RNA isolation. For the mass spectrometry metabolite analyses, 200 μt samples were taken at 0, 3, 6, 9, 12, and 24 hours of growth; cells were removed by centrifugation; and supernatants were stored at −80° C. for further analysis.
Analysis of plant glycoside uptake from L. acidophilus NCFM culture supernatants using mass spectrometry. The supernatants of L. acidophilus NCFM cultures grown on amygdalin, arbutin, esculin or salicin as carbon sources were analyzed during 24 hours by ultra-high performance liquid chromatography-diode array detection-quadruple time of flight mass spectrometry (UHPLC-DAD-Q-TOF-MS). Samples were diluted 1:20 (v/v) with methanol and an injection volume of 1.5 was used. […] Ionization was conducted in ESI-mode with capillary voltage set to 4000 V and nozzle voltage to 500 V. Mass spectra were recorded as centroid data for m/z 85-1700 in MS mode with an acquisition rate of 10 spectra s^−1. […]

L. acidophilus NCFM [2] = assay: Growth of L. acidophilus NCFM on plant glycosides as single carbon source (OD600); format: cell-based, Lactobacillus acidophilus; settings: 200 μL cultures in 96-well plates; range over the named glycosides
Experimental: as §1
Phenotypic growth assays were performed using 1% (v/v) overnight cultures of L. acidophilus strains (Table 2) and other Lactobacillus species (Table 3) grown on SDM supplemented with 1% (w/v) glucose to inoculate 200 μL of SDM supplemented with 1% (w/v) of the examined carbohydrate (0.5% in the case of esculin) in 96-well microplate wells (Corning Costar, Corning, N.Y., USA) in duplicate or triplicate wells, respectively. The microplates were sealed with clear adhesive film, incubated at 37° C. in a Fluostar Optima microplate reader (BMG Labtech, Cary, N.C., USA), and the cell optical density (OD600) was monitored for 30 hours.
The growth of L. acidophilus NCFM was evaluated on twelve chemically diverse, nutritionally relevant and/or therapeutically active PGs 1; Table 1). FIG. 1A provides the structures and common sources of plant glycoside substrates described herein. The compounds that support growth of Lactobacillus acidophilus are in green. RI: β-D-Glcp; R2: Gentiobioside (β-D-Glcp-(1,6)-D-Glcp); R3: Rutinoside (α-L-Rhaf-(1,6)-D-Glcp). The graph in FIG. 1B depicts plant glycoside utilization analyzed by mass spectrometry and the growth as the maximum OD600. Due to the low solubility of polydatin, OD600 cannot be used as a growth metric and utilization of this compound is confirmed by the production of lactate as well as a high utilization level based on the metabolite analysis.

| SMILES | Catabolism based on MS (L. acidophilus NCFM [1]) | maximum OD600 (L. acidophilus NCFM [2]) |
| --- | --- | --- |
| O=c1c(O[C@@H]2O[C@H](CO)[C@@H](O)[C@H](O)[C@H]2O)c(-c2ccc(O)c(O)c2)oc2cc(O)cc(O)c12 [Isoquercetin] | No | – |
| COc1cc2ccc(=O)oc2c(O[C@@H]2O[C@H](CO)[C@@H](O)[C@H](O)[C@H]2O)c1O [Fraxin] | – | 0.3-1.3 |
| COc1cc(C=O)ccc1O[C@@H]1O[C@H](CO)[C@@H](O)[C@H](O)[C@H]1O [Vanilin 4-O-β-glucoside] | – | 0.3-1.3 |
| C[C@@H]1O[C@@H](OC[C@H]2O[C@@H](Oc3c(-c4ccc(O)c(O)c4)oc4cc(O)cc(O)c4c3=O)[C@H](O)[C@@H](O)[C@@H]2O)[C@H](O)[C@H](O)[C@H]1O [Rutin hydrate] | No | – |
| OCc1ccccc1O[C@@H]1O[C@H](CO)[C@@H](O)[C@H](O)[C@H]1O [Salicin] | – | 0.3-1.3 |
